Assay results as given in US12427209B2 (Provincial Health Services Authority, priority 2018, dated 2025).

Assays:
[1] = general procedure: Fmoc solid-phase peptide synthesis; Wang resin; HBTU/DIPEA; NHS esters for solution conjugations; settings: whole synthesis, scale 16.5 μmol
[2] = general procedure: Fmoc solid-phase peptide synthesis; O-bis-(aminoethyl)ethyleneglycol trityl resin (LLP2A); Wang resin (BK); HBTU/DIPEA; NHS esters for solution conjugations; settings: whole synthesis

Substance: DOTA-((L)-Lys-E-1,2,3-triazole-N,N-dimethyl-ammoniomethyl-trifluoroborate)-4-amino-1-carboxymethyl-piperidine-Lys-Arg-Pro-Hyp-Gly-Cha-Ser-Pro-Leu-COOH
- isolated mass [1]: 1.7 mg
- isolated yield [1]: 5%
- difficulty met [2]: HPLC purification of bradykinin derivatives has proven to be difficult
- isolated yield [2]: 5.5%
